Our source for the T/C and survivor count values is PubChem BioAssay AID330 (DTP/NCI, 2004).

The list is a part of this screen's results and no random one: it is rich in T/C values a quarter to a half above the control, in often repeated tests (any T/C) and in doses without a T/C. Further doses and runs are listed elsewhere. T/C is the treated group as % of the vehicle group. Some doses have a count of surviving animals in place of a T/C: the source holds a T/C of zero for them, seemingly a mark for toxic or unscored doses. Some doses without a T/C left all or most animals alive at the check, yet need not have been tolerated: survival well below the control is almost never listed, so the zero probably covers shortened survival too. Counts of survivors are from the toxicity check (mostly the fifth day) where no day follows; animals may have died later. Schedule codes are those of the source, read here as Q, the interval in days (D) or hours (H), X, the number of doses. Some entries were tested several times; the results are listed from low to high. For survival time, this PubChem deposit counts one and a half times the control or more as active, and values a quarter to a half above the control carry no call in these data; other NCI protocols may use other cut-offs. Some T/C values are followed by the survivors on the day toxicity was checked, most often the fifth; where none is given, no animal had died by that day.

This assay has as its system P388 leukemia ip, CD2F1 mice, survival T/C. Put plainly: NCI In Vivo Anticancer Drug Screen. Data for tumor model P388 Leukemia (intraperitoneal) in CD2F1 (CDF1) mice. The settings on record: T/C endpoint: median survival time, higher T/C = longer survival.
The mark [1] stands for this setting: dose: 50.0 mg/kg/injection, schedule: Q01DX009 (ip), vehicle: saline with Tween-80.
The mark [2] stands for this setting: dose: 240.0 mg/kg/injection, schedule: Q01DX005 (ip), vehicle: saline with Tween-80.
[3] abbreviates: dose: 100.0 mg/kg/injection, schedule: Q01DX005 (ip), vehicle: Klucel (hydroxypropylcellulose) (HPC).
Where [4] appears, read: dose: 200.0 mg/kg/injection, schedule: Q01DX005 (ip), vehicle: Klucel (hydroxypropylcellulose) (HPC).
[5] abbreviates: dose: 2.5 mg/kg/injection, schedule: Q01DX009 (ip), vehicle: Klucel (hydroxypropylcellulose) (HPC).
Setting [6] is: dose: 120.0 mg/kg/injection, schedule: Q01DX005 (ip), vehicle: saline with Tween-80.
Where [7] appears, read: dose: 60.0 mg/kg/injection, schedule: Q01DX005 (ip), vehicle: saline with Tween-80.

Turning to `O=C(CC(O)(C(F)(F)F)C(F)(F)F)c1ccco1`, the T/C was 130 % of control under setting [1] and 140 % of control [5 of 6 alive] (dose: 75.0 mg/kg/injection, schedule: Q01DX009 (ip), vehicle: saline with Tween-80).
For the compound `O=C(Cn1cnc2ccc([N+](=O)[O-])cc21)N1CCN(c2ccccc2)CC1`, under setting [2], the survivor count is on record as 6 of 6.
As for `Nc1nc(=O)nc2[nH]c3c4cccc5cccc(c3nc12)c54` (tested in a mixture with another compound), under setting [3], the T/C is 126 % of control and the survivor count was 6 of 6. Further, the survivor count under setting [4] is on record as 1 of 6.
Turning to `O=C(O)C(CCCCNC(=S)S)NC(=S)S.[Zn+2]` (stereo unspecified), the survivor count under setting [4] is 2 of 3.
On to `CCN(CC)[P+](c1ccccc1O)(N(CC)CC)N(CC)CC`, for which the survivor count (dose: 6.25 mg/kg/injection, schedule: Q01DX009 (ip), vehicle: saline) was 1 of 6 and 5 of 6; the survivor count (dose: 12.5 mg/kg/injection, schedule: Q01DX009 (ip), vehicle: saline) is 0 of 6; the survivor count (dose: 25.0 mg/kg/injection, schedule: Q01DX009 (ip), vehicle: saline) is 0 of 6; the survivor count (dose: 50.0 mg/kg/injection, schedule: Q01DX009 (ip), vehicle: saline) is on record as 0 of 6; the survivor count (dose: 100.0 mg/kg/injection, schedule: Q01DX009 (ip), vehicle: saline) is given as 0 of 6; the survivor count (dose: 200.0 mg/kg/injection, schedule: Q01DX009 (ip), vehicle: saline) was 0 of 6. Besides, where the note is “dose: 400.0 mg/kg/injection, schedule: Q01DX009 (ip), vehicle: saline”, the survivor count is on record as 0 of 6.
Regarding `N#CC(OC(=O)c1ccccc1)C(OC(=O)c1ccccc1)C(OC(=O)c1ccccc1)C(COC(=O)c1ccccc1)OC(=O)c1ccccc1` (stereo unspecified), the survivor count was 5 of 5 (dose: 50.0 mg/kg/injection, schedule: Q01DX005 (ip), vehicle: saline with Tween-80); 5 of 5 (dose: 100.0 mg/kg/injection, schedule: Q01DX005 (ip), vehicle: saline with Tween-80); 5 of 5 (dose: 200.0 mg/kg/injection, schedule: Q01DX005 (ip), vehicle: saline with Tween-80).
As to `COc1cc2c(c(OC)c1OC)-c1ccc(OC)c(=O)cc1[C@@H](N(C)C=O)CC2`, the T/C is, setting by setting: (dose: 0.62 mg/kg/injection, schedule: Q01DX009 (ip), vehicle: Klucel (hydroxypropylcellulose) (HPC)) 137 % of control; (dose: 1.25 mg/kg/injection, schedule: Q01DX009 (ip), vehicle: Klucel (hydroxypropylcellulose) (HPC)) 128 % of control; under setting [5], 140 % of control. For the same compound, the survivor count runs as follows: under setting [5], 4 of 6; (dose: 5.0 mg/kg/injection, schedule: Q01DX009 (ip), vehicle: Klucel (hydroxypropylcellulose) (HPC)) 4 of 6 and 6 of 6; (dose: 10.0 mg/kg/injection, schedule: Q01DX009 (ip), vehicle: Klucel (hydroxypropylcellulose) (HPC)) 4 of 6; (dose: 20.0 mg/kg/injection, schedule: Q01DX009 (ip), vehicle: Klucel (hydroxypropylcellulose) (HPC)) 4 of 6.
For `CCCCCCCCCCCCCC[N+](C)([O-])CCCCCC[N+](C)([O-])CCCCCCCCCCCCCC` (stereo unspecified), the survivor count is given as 0 of 6 (dose: 100.0 mg/kg/injection, schedule: Q01DX009 (ip), vehicle: Klucel (hydroxypropylcellulose) (HPC)) and 0 of 6 (dose: 200.0 mg/kg/injection, schedule: Q01DX009 (ip), vehicle: Klucel (hydroxypropylcellulose) (HPC)).
In the case of `CC1(C)N=c2cc3c(cc2N1c1ccc(Cl)cc1)=Nc1ccccc1N3c1ccc(Cl)cc1`, the survivor count is given as 6 of 6 under setting [6] and 6 of 6 under setting [2].
Regarding `CC1CCC(C(=O)C(Cl)Cc2ccccc2)CC1` (stereo unspecified), the survivor count under setting [4] is 3 of 6.
With `Cc1cc(C)c(S(=O)(=O)N/N=C(\CBr)c2ccccc2)c(C)c1`, the survivor count under setting [7] is given as 6 of 6 and the survivor count under setting [6] was 6 of 6.
In the case of `O=C(/C=C/c1c[nH]c2ccccc12)c1ccc([N+](=O)[O-])cc1`, the survivor count reads like this: under setting [7], 6 of 6; under setting [6], 6 of 6; under setting [2], 6 of 6.
In the case of `CC(C)(C)C(=O)Oc1c2ccccc2cc2ccccc12`, the survivor count under setting [6] was 6 of 6 and the survivor count under setting [2] is on record as 6 of 6.
Take `NNc1nncc2c1[nH]c1ccccc12`: the survivor count is reported as 3 of 5 (dose: 12.5 mg/kg/injection, schedule: Q01DX001 (ip), vehicle: saline with Tween-80); 3 of 5 (dose: 25.0 mg/kg/injection, schedule: Q01DX001 (ip), vehicle: saline with Tween-80); 0 of 5 (dose: 50.0 mg/kg/injection, schedule: Q01DX001 (ip), vehicle: saline with Tween-80); 3 of 5 (dose: 100.0 mg/kg/injection, schedule: Q01DX001 (ip), vehicle: suspension in saline); 0 of 5 (dose: 200.0 mg/kg/injection, schedule: Q01DX001 (ip), vehicle: suspension in saline); 0 of 5 (dose: 400.0 mg/kg/injection, schedule: Q01DX001 (ip), vehicle: suspension in saline).
As to `CC(C)(c1ccccc1)c1cc(CN2CCCCC2)c(O)c(CN2CCCCC2)c1`, the survivor count is given as 5 of 6 under setting [1] and 0 of 6 (dose: 200.0 mg/kg/injection, schedule: Q01DX009 (ip), vehicle: saline with Tween-80).
As to `Oc1c(Cl)cc(C(c2cc(Cl)c(O)c(Cl)c2)C(c2cc(Cl)c(O)c(Cl)c2)c2cc(Cl)c(O)c(Cl)c2)cc1Cl`, the T/C (dose: 200.0 mg/kg/injection, schedule: Q04DX003 (ip), vehicle: Klucel (hydroxypropylcellulose) (HPC)) was 126 % of control. Further, where the note is “dose: 400.0 mg/kg/injection, schedule: Q04DX003 (ip), vehicle: Klucel (hydroxypropylcellulose) (HPC)”, the survivor count was 6 of 6.
